# Measured values taken from the supplement of paper PMC8728848.
# Some of the results follow.
# B1: CBP21 (Serratia marcescens), O83009 (protein)
# chain: MNKTSRTLLSLGLLSAAMFGVSQQANAHGYVESPASRAYQCKLQLNTQCGSVQYEPQSVEGLKGFPQAGPADGHIASADKSTFFELDQQTPTRWNKLNLKTGPNSFTWKLTARHSTTSWRYFITKPNWDASQPLTRASFDLTPFCQFNDGGAIPAAQVTHQCNIPADRSGSHVILAVWDIADTANAFYQAIDVNLSK
# Experiments:
# Experiment in all cases: glycan array binding signal (z-score within array); higher = stronger binding
# Settings in all cases: glycan notation: IUPAC condensed, linker removed
# [1] = target: Fuc(a1-2)Gal6S(b1-3)GlcNAc
# Procedure, shortened: (§1)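 The binding signal is a Z-score computed within each array and averaged over linkers. Arrays of the same protein sequence at different concentrations or buffers were also averaged together. Data originate from 3228 arrays in the Consortium for Functional Glycomics database, kept only where the protein sequence was available.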
# [2] = target: Fuc(a1-2)Gal6S(b1-3)GlcNAc6S
# Procedure, shortened: as §1
# [3] = target: Fuc(a1-2)Gal6S(b1-4)Glc
# Procedure, shortened: as §1
# [4] = target: Fuc(a1-2)Gal6S(b1-4)Glc6S
# Procedure, shortened: as §1
# [5] = target: Fuc(a1-2)[Gal(a1-3)]Gal
# Procedure, shortened: as §1
# [6] = target: Fuc(a1-2)[Gal(a1-3)]Gal(b1-3)GalNAc
# Procedure, shortened: as §1
# [7] = target: Fuc(a1-2)[Gal(a1-3)]Gal(b1-3)GalNAc(b1-3)Gal(a1-4)Gal(b1-4)Glc
# Procedure, shortened: as §1
# [8] = target: Fuc(a1-2)[Gal(a1-3)]Gal(b1-3)GlcNAc
# Procedure, shortened: as §1
# [9] = target: Fuc(a1-2)[Gal(a1-3)]Gal(b1-3)GlcNAc(b1-2)Man(a1-3)[Fuc(a1-2)[Gal(a1-3)]Gal(b1-3)GlcNAc(b1-2)Man(a1-6)]Man(b1-4)GlcNAc(b1-4)GlcNAc
# Procedure, shortened: as §1
# [10] = target: Fuc(a1-2)[Gal(a1-3)]Gal(b1-3)GlcNAc(b1-2)Man(a1-3)[Fuc(a1-2)[Gal(a1-3)]Gal(b1-3)GlcNAc(b1-2)Man(a1-6)]Man(b1-4)GlcNAc(b1-4)[Fuc(a1-6)]GlcNAc
# Procedure, shortened: as §1
# [11] = target: Fuc(a1-2)[Gal(a1-3)]Gal(b1-3)GlcNAc(b1-3)GalNAc
# Procedure, shortened: as §1
# [12] = target: Fuc(a1-2)[Gal(a1-3)]Gal(b1-3)GlcNAc(b1-6)GalNAc
# Procedure, shortened: as §1
# [13] = target: Fuc(a1-2)[Gal(a1-3)]Gal(b1-4)Glc
# Procedure, shortened: as §1
# [14] = target: Fuc(a1-2)[Gal(a1-3)]Gal(b1-4)GlcNAc
# Procedure, shortened: as §1
# [15] = target: Fuc(a1-2)[Gal(a1-3)]Gal(b1-4)GlcNAc(b1-2)Man
# Procedure, shortened: as §1
# [16] = target: Fuc(a1-2)[Gal(a1-3)]Gal(b1-4)GlcNAc(b1-2)Man(a1-3)[Fuc(a1-2)[Gal(a1-3)]Gal(b1-4)GlcNAc(b1-2)Man(a1-6)]Man(b1-4)GlcNAc(b1-4)GlcNAc
# Procedure, shortened: as §1
# [17] = target: Fuc(a1-2)[Gal(a1-3)]Gal(b1-4)GlcNAc(b1-2)Man(a1-3)[Fuc(a1-2)[Gal(a1-3)]Gal(b1-4)GlcNAc(b1-2)Man(a1-6)]Man(b1-4)GlcNAc(b1-4)[Fuc(a1-6)]GlcNAc
# Procedure, shortened: as §1
# [18] = target: Fuc(a1-2)[Gal(a1-3)]Gal(b1-4)GlcNAc(b1-3)GalNAc
# Procedure, shortened: as §1
# [19] = target: Fuc(a1-2)[Gal(a1-3)]Gal(b1-4)GlcNAc(b1-3)[Fuc(a1-2)[Gal(a1-3)]Gal(b1-4)GlcNAc(b1-6)]GalNAc
# Procedure, shortened: as §1
# [20] = target: Fuc(a1-2)[Gal(a1-3)]Gal(b1-4)GlcNAc(b1-6)GalNAc
# Procedure, shortened: as §1
# [21] = target: Fuc(a1-2)[Gal(a1-3)]Gal(b1-4)[Fuc(a1-3)]Glc
# Procedure, shortened: as §1
# [22] = target: Fuc(a1-2)[Gal(a1-3)]Gal(b1-4)[Fuc(a1-3)]GlcNAc
# Procedure, shortened: as §1
# [23] = target: Fuc(a1-2)[Gal(a1-3)]Gal(b1-4)[Fuc(a1-3)]GlcNAc(b1-3)GalNAc
# Procedure, shortened: as §1
# [24] = target: Fuc(a1-2)[Gal(a1-4)]Gal(b1-4)GlcNAc
# Procedure, shortened: as §1
# [25] = target: Fuc(a1-2)[GalNAc(a1-3)]Gal
# Procedure, shortened: as §1
# [26] = target: Fuc(a1-2)[GalNAc(a1-3)]Gal(b1-3)GalNAc(a1-3)[Fuc(a1-2)]Gal(b1-4)GlcNAc
# Procedure, shortened: as §1
# [27] = target: Fuc(a1-2)[GalNAc(a1-3)]Gal(b1-3)GalNAc(b1-3)Gal(a1-4)Gal(b1-4)Glc
# Procedure, shortened: as §1
# [28] = target: Fuc(a1-2)[GalNAc(a1-3)]Gal(b1-3)GlcNAc
# Procedure, shortened: as §1
# [29] = target: Fuc(a1-2)[GalNAc(a1-3)]Gal(b1-3)GlcNAc(b1-2)Man(a1-3)[Fuc(a1-2)[GalNAc(a1-3)]Gal(b1-3)GlcNAc(b1-2)Man(a1-6)]Man(b1-4)GlcNAc(b1-4)GlcNAc
# Procedure, shortened: as §1
# [30] = target: Fuc(a1-2)[GalNAc(a1-3)]Gal(b1-3)GlcNAc(b1-2)Man(a1-3)[Fuc(a1-2)[GalNAc(a1-3)]Gal(b1-3)GlcNAc(b1-2)Man(a1-6)]Man(b1-4)GlcNAc(b1-4)[Fuc(a1-6)]GlcNAc
# Procedure, shortened: as §1
# [31] = target: Fuc(a1-2)[GalNAc(a1-3)]Gal(b1-3)GlcNAc(b1-3)GalNAc
# Procedure, shortened: as §1
# [32] = target: Fuc(a1-2)[GalNAc(a1-3)]Gal(b1-3)GlcNAc(b1-6)GalNAc
# Procedure, shortened: as §1
# [33] = target: Fuc(a1-2)[GalNAc(a1-3)]Gal(b1-4)Glc
# Procedure, shortened: as §1
# [34] = target: Fuc(a1-2)[GalNAc(a1-3)]Gal(b1-4)GlcNAc
# Procedure, shortened: as §1
# [35] = target: Fuc(a1-2)[GalNAc(a1-3)]Gal(b1-4)GlcNAc(b1-2)Man
# Procedure, shortened: as §1
# [36] = target: Fuc(a1-2)[GalNAc(a1-3)]Gal(b1-4)GlcNAc(b1-2)Man(a1-3)[Fuc(a1-2)[GalNAc(a1-3)]Gal(b1-4)GlcNAc(b1-2)Man(a1-6)]Man(b1-4)GlcNAc(b1-4)GlcNAc
# Procedure, shortened: as §1
# [37] = target: Fuc(a1-2)[GalNAc(a1-3)]Gal(b1-4)GlcNAc(b1-2)Man(a1-3)[Fuc(a1-2)[GalNAc(a1-3)]Gal(b1-4)GlcNAc(b1-2)Man(a1-6)]Man(b1-4)GlcNAc(b1-4)[Fuc(a1-6)]GlcNAc
# Procedure, shortened: as §1
# [38] = target: Fuc(a1-2)[GalNAc(a1-3)]Gal(b1-4)GlcNAc(b1-3)Gal(b1-4)GlcNAc
# Procedure, shortened: as §1
# [39] = target: Fuc(a1-2)[GalNAc(a1-3)]Gal(b1-4)GlcNAc(b1-3)Gal(b1-4)GlcNAc(b1-3)Gal(b1-4)GlcNAc
# Procedure, shortened: as §1
# [40] = target: Fuc(a1-2)[GalNAc(a1-3)]Gal(b1-4)GlcNAc(b1-3)GalNAc
# Procedure, shortened: as §1
# [41] = target: Fuc(a1-2)[GalNAc(a1-3)]Gal(b1-4)GlcNAc(b1-3)[Fuc(a1-2)[GalNAc(a1-3)]Gal(b1-4)GlcNAc(b1-6)]GalNAc
# Procedure, shortened: as §1
# [42] = target: Fuc(a1-2)[GalNAc(a1-3)]Gal(b1-4)GlcNAc(b1-6)GalNAc
# Procedure, shortened: as §1
# [43] = target: Fuc(a1-2)[GalNAc(a1-3)]Gal(b1-4)[Fuc(a1-3)]GlcNAc
# Procedure, shortened: as §1
# [44] = target: Fuc(a1-2)[GalNAc(a1-3)]Gal(b1-4)[Fuc(a1-3)]GlcNAc(b1-3)GalNAc
# Procedure, shortened: as §1
# [45] = target: Fuc(a1-2)[GalNAc(a1-4)]Gal(b1-4)GlcNAc
# Procedure, shortened: as §1
binder,measurement,setting,value
B1,glycan array binding signal (z-score),[1],-0.19
same,glycan array binding signal (z-score),[2],0.672
same,glycan array binding signal (z-score),[3],0.884
same,glycan array binding signal (z-score),[4],-0.162
same,glycan array binding signal (z-score),[5],-0.062
same,glycan array binding signal (z-score),[6],0.134
same,glycan array binding signal (z-score),[7],-1.6
same,glycan array binding signal (z-score),[8],0.005
same,glycan array binding signal (z-score),[9],-0.227
same,glycan array binding signal (z-score),[10],-0.105
same,glycan array binding signal (z-score),[11],0.688
same,glycan array binding signal (z-score),[12],1.32
same,glycan array binding signal (z-score),[13],0.719
same,glycan array binding signal (z-score),[14],0.785
same,glycan array binding signal (z-score),[15],0.499
same,glycan array binding signal (z-score),[16],1.68
same,glycan array binding signal (z-score),[17],-0.391
same,glycan array binding signal (z-score),[18],1.1
same,glycan array binding signal (z-score),[19],2.99
same,glycan array binding signal (z-score),[20],1.44
same,glycan array binding signal (z-score),[21],-1.78
same,glycan array binding signal (z-score),[22],0.488
same,glycan array binding signal (z-score),[23],-0.443
same,glycan array binding signal (z-score),[24],1.14
same,glycan array binding signal (z-score),[25],-0.049
same,glycan array binding signal (z-score),[26],0.456
same,glycan array binding signal (z-score),[27],0.463
same,glycan array binding signal (z-score),[28],1.07
same,glycan array binding signal (z-score),[29],0.241
same,glycan array binding signal (z-score),[30],-0.672
same,glycan array binding signal (z-score),[31],0.326
same,glycan array binding signal (z-score),[32],-1.9
same,glycan array binding signal (z-score),[33],-0.513
same,glycan array binding signal (z-score),[34],-0.947
same,glycan array binding signal (z-score),[35],-0.329
same,glycan array binding signal (z-score),[36],0.431
same,glycan array binding signal (z-score),[37],-0.038
same,glycan array binding signal (z-score),[38],1.41
same,glycan array binding signal (z-score),[39],0.507
same,glycan array binding signal (z-score),[40],-1.09
same,glycan array binding signal (z-score),[41],0.431
same,glycan array binding signal (z-score),[42],0.411
same,glycan array binding signal (z-score),[43],2.38
same,glycan array binding signal (z-score),[44],-1.22
same,glycan array binding signal (z-score),[45],-1.03

# Part of the list above, reformatted.
binder	measurement	setting	value
B1	glycan array binding signal (z-score)	[28]	1.07
same	glycan array binding signal (z-score)	[29]	0.241

# No new results follow: entries from further up.
binder,measurement,setting,value
B1,glycan array binding signal (z-score),[39],0.507
same,glycan array binding signal (z-score),[40],-1.09
